Among the data in PubChem BioAssay AID493014 (National Center for Advancing Translational Sciences (NCATS), 2011) are AC50 values, retold here.

Some of the results follow. Shown are side measurements of this screen, not its main read-out; they come without a call. The list favours compounds with an active or inconclusive main result. The note in brackets gives the kind of curve behind each potency; many fits are weak.

This assay is described as follows: qHTS Assay to Find Inhibitors of Chronic Active B-Cell Receptor Signaling. Conditions: ABC-DLBCL IkBa-CBG/CBR reporter, luminescence ratio (green luciferase fused to IkBa over red control in TMD8 lymphoma cells), 4 h. Put shortly: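 Concentration-response series (up to 46 uM) were applied to TMD8 dual-reporter cells for 4 h at 37C with doxycycline. Green/red ratio, after filter-overlap correction, defined %Activity; red signal alone was normalised to basal cells and zero luminescence.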
Background: In qHTS, concentration-response curves come from the screen itself.

[1] abbreviates: measured here: CBR red luminescence, cell number.
[2] abbreviates: measured here: IkBa-CBG green luminescence.

With `Cc1nc([N+](=O)[O-])c(Br)n1CC(=O)c1ccc2ccccc2c1`, the AC50 (commonly the concentration giving half of the maximal activity seen) under setting [1] was 20.6 µM [falling, single point].

Turning to `CCc1ccc(C(=O)NNC(=O)Cn2c(=O)cnc3ccccc32)cc1`, under setting [1], the AC50 was 16.4 µM [rising, partial curve]. Consider `COc1ccc(-c2ccc(C#N)c(SCC(=O)OCc3ccccc3)n2)cc1OC`, for which the AC50 under setting [1] is 7.08 µM [rising, partial curve, poor fit]. For `COc1cccc(NC(=S)Nc2ccc(F)cc2)c1`, under setting [1], the AC50 was 35.5 µM [rising, single point]. On the same count and under the same terms, with `CCOC(=O)N1CCN(CC(=O)N2c3ccccc3Sc3ccccc32)CC1` the figure was 14.1 µM [falling, partial curve, poor fit]; with `O=C(CCSc1ccccc1)N1CCN(c2ccccc2)CC1`, 3.16 µM [rising, single point]; with `COc1ccc(NC(=O)Nc2ccc(F)c(Cl)c2)cc1`, 35.5 µM [falling, partial curve, poor fit]. On the same count and under the same terms, with `COc1ccc2oc(=O)c(C(=O)N3CCc4ccccc43)cc2c1` the figure was 0.0651 µM [falling, partial curve, poor fit].

Regarding `C/C(=N\NC(=S)NC(C)C)c1ccc2c(c1)OCCO2`, the half-maximal activity concentration (AC50) is 29.1 µM [falling, single point] under setting [1] and 23.1 µM [falling, single point] under setting [2].

In the case of `COc1ccc(CCN2CCC(Nc3nc4ccccc4n3Cc3ccc(F)cc3)CC2)cc1`, the AC50 under setting [1] is 29.1 µM [falling, partial curve, poor fit] and the AC50 under setting [2] was 18.4 µM [falling, single point]. Take `Cc1ccc2c(CC(=O)N(C)c3c(N)n(Cc4ccccc4)c(=O)[nH]c3=O)coc2c1`: the AC50 under setting [1] is 23.1 µM [falling, single point]. On to `O=C(COc1ccccc1)NC(=S)Nc1cccc([N+](=O)[O-])c1`, for which, under setting [1], the AC50 is 7.31 µM [falling, partial curve]. On the same count and under the same terms, with `CC1=Nc2cc(C(=O)NCC3CCCO3)ccc2Sc2ccc(Br)cc21` (stereo not given) the figure was 35.5 µM [falling, single point]. Same read-out and setting: the value for `O=C(NCCNS(=O)(=O)c1ccccc1Cl)c1cc(OCC(F)(F)F)ccc1OCC(F)(F)F` was 7.08 µM [rising, full curve]; that for `CC(=O)Nc1cc(OC(C)=O)c2nonc2c1OC(C)=O` was 5.62 µM [falling, full curve, poor fit]. Same read-out and setting: the value for `CNC(=O)CC1C(=O)N(C)C(=S)N1NC(=O)c1ccc(Cl)cc1` (stereo not given) was 6.51 µM [rising, partial curve, poor fit]. As to `O=C(COc1ccccc1Cl)Nc1ccc(NC(=O)c2ccco2)cc1`, under setting [1], the AC50 is 14.1 µM [rising, single point]. The same measure, in the same setting: with `COC(=O)COc1ccc(NC(=O)Cn2nc(-c3ccccc3)c3ccccc3c2=O)cc1` the figure was 3.16 µM [falling, single point]. For the compound `CCOC(=O)C(C)Oc1cccc2c(=O)n(CC(=O)NCc3ccccc3)ccc12` (stereo not given), the AC50 runs as follows: under setting [1], 6.31 µM [rising, partial curve, poor fit]; under setting [2], 2.82 µM [falling, full curve]. Consider `O=C(N/N=C/c1ccco1)Nc1ccccc1`, for which the AC50 under setting [1] is 9.2 µM [falling, partial curve]. As to `Cc1cc2c(N=O)c(NO)ccc2[nH]1`, the AC50 under setting [1] is 0.146 µM [falling, full curve, poor fit]. Still for that read-out and setting: with `CCOc1ccc(Nc2oc(-c3ccc(Cl)cc3)nc2C#N)cc1` the figure was 14.1 µM [falling, single point]. The same measure, in the same setting: with `Cc1noc(C)c1-c1csc(N2CCC(C(N)=O)CC2)n1` the figure was 10.3 µM [rising, partial curve, poor fit]. The same measure, in the same setting: the value for `Cc1nc2cc(NC(=O)CCS(=O)(=O)c3ccccc3)ccc2s1` was 0.58 µM [rising, full curve]. For the compound `CC(=O)c1cnc2nc(SCc3ccccc3)nn2c1C`, the AC50 under setting [1] was 11.2 µM [rising, partial curve].

As to `CCSc1nc2c(cnn2-c2ccc(C)c(C)c2)c(=O)[nH]1`, under setting [1], the AC50 is 2.31 µM [rising, partial curve, poor fit]. As for `CSc1nc(N(C)NC(=O)c2cccc(C)c2)c2ccccc2n1`, the AC50 was 1.78 µM [rising, full curve] under setting [1] and 0.794 µM [falling, full curve] under setting [2]. Regarding `CN1CCN(C(=S)NC(=O)/C=C/c2ccccc2Cl)CC1`, the concentration at half-maximal activity (AC50) under setting [1] is 6.31 µM [rising, single point]. On the same count and under the same terms, the value for `Cc1cc(=O)oc(C)c1C(=O)NC1CC(C)(C)NC(C)(C)C1` was 1.03 µM [rising, full curve, poor fit]; that for `N/C(=N\OC(=O)COc1ccc(Br)cc1)c1cccnc1` was 0.731 µM [rising, full curve, poor fit]; that for `CCOC(=O)Nc1ccc2ncn(C)c(=O)c2c1` was 29.1 µM [falling, single point].

In the case of `COc1ccc(NC(=O)CSc2nnc(-c3ccccc3Cl)n2Cc2ccco2)c(OC)c1`, the AC50 under setting [1] is 5.62 µM [falling, full curve, poor fit]. As to `CC1=CC(C)(C)N(S(=O)(=O)c2ccc(F)cc2)c2ccccc21`, the AC50 under setting [2] is 29.1 µM [falling, single point]. With `CC(Sc1nc(=O)cc(N)n1CCc1ccccc1)C(=O)Nc1ccc(Cl)cc1` (stereo not given), the concentration at half-maximal activity (AC50) reads like this: under setting [1], 11.2 µM [falling, partial curve, poor fit]; under setting [2], 12.6 µM [rising, partial curve, poor fit].

On to `O=C(O)CC(NC(=S)NCc1ccccc1)C(=O)O` (stereo not given), for which the AC50 under setting [1] is 2.31 µM [falling, full curve, poor fit]. The same measure, in the same setting: the value for `Cc1ccc(NC(=O)CSCC(=O)Nc2ncc3c(n2)CC(c2ccco2)CC3=O)cc1` (stereo not given) was 0.731 µM [falling, partial curve, poor fit]; that for `CC1CC(C)CN(C(=O)Nc2ccc(Br)cc2)C1` (stereo not given) was 7.94 µM [rising, partial curve, poor fit]. Same read-out and setting: with `CCc1noc(C)c1C(=O)Nc1nc(-c2cccs2)cs1` the figure was 0.326 µM [rising, full curve, poor fit]; with `Cc1ccc(N=Nc2ccc(C)cc2NC(=O)Nc2ccccc2F)cc1`, 25.1 µM [falling, single point]; with `CC(=O)c1cccc(OCc2cc(C(=O)N3CCC(N4CCCCC4)CC3)no2)c1`, 10 µM [rising, partial curve].
